The nature of the assay: qHTS Assay to Find Inhibitors of Chronic Active B-Cell Receptor Signaling. The following applies: ABC-DLBCL IkBa-CBG/CBR reporter, luminescence ratio (green luciferase fused to IkBa over red control in TMD8 lymphoma cells), 4 h. Summed up:
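Doxycycline induced both beetle luciferases in TMD8 lymphoma cells; IKK-driven degradation limits the IkappaBalpha-fused green signal, while red luminescence normalises for cell number and nonspecific effects. Compounds tested up to 46 uM, 4 hrs.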
On the technique in general: qHTS replaces the single test concentration by a dilution series.

[1] abbreviates: measured here: CBR red luminescence, cell number.
Where [2] appears, read: measured here: IkBa-CBG green luminescence.

The other results are listed elsewhere or left out. Shown are side measurements of this screen, not its main read-out; they come without a call. Compounds called inactive in the main read-out are mostly missing here. The note in brackets gives the kind of curve behind each potency; many fits are weak.

`Cc1ccsc1C(=O)N1CCCC(C(=O)c2cc(F)ccc2F)C1` (stereo not given): the AC50 under setting [1] is 12.6 µM [rising, partial curve, poor fit].
On the same count and under the same terms, then `FC(F)(F)c1ccc(N2CCN(c3cc(-c4ccccc4)nc4ncnn34)CC2)nc1`, with 31.6 µM [falling, partial curve, poor fit].
Same read-out and setting: the figure for `CCOc1cc(/C=C(/C#N)c2nc3ccccc3[nH]2)ccc1Oc1ccc([N+](=O)[O-])cn1` is 0.651 µM [falling, full curve, poor fit]; for `O=C1C(=C2SCCCS2)CC/C1=C\c1ccc(F)cc1` it is 2.51 µM [falling, partial curve].
Same read-out and setting: then `O=C(/C=C/c1ccc(Cl)cc1)NCc1cccs1`, with 23.1 µM [falling, single point]; and `CC1CCN(C(=O)CNC(=O)c2cccc(OC(F)F)c2)CC1`, with 3.98 µM [falling, full curve, poor fit]; and `Cc1ccc(/C=N/NC(=S)N2CCOCC2)cc1`, with 1.84 µM [rising, full curve].
As to `COc1cccc(Nc2nc(N)nc(CCl)n2)c1`, the AC50 under setting [1] is 11.2 µM [falling, partial curve].
`Cc1ccc(/C=C/c2nnc(-c3ccccc3)o2)cc1`: under setting [1], the AC50 is 1.58 µM [falling, full curve].
The same measure, in the same setting: the figure for `Cc1ccccc1-n1c(SCC(=O)N2CCC(C(=O)O)CC2)nnc1-c1ccncc1` is 35.5 µM [rising, single point]; for `CC(=O)Nc1ccc(Nc2cc(C(C)C)nc3c(-c4ccccc4)c(C)nn23)cc1` it is 35.5 µM [falling, single point].
On the same count and under the same terms, then `O=C(O)c1ccc(Nc2ncc([N+](=O)[O-])cc2[N+](=O)[O-])cc1`, with 3.16 µM [falling, partial curve, poor fit]; and `C=CCn1c(SCC(=O)Nc2ccc(C)cc2C)nnc1-c1cccnc1`, with 29.1 µM [rising, single point]; and `COc1ccccc1N1CCN(C(c2cccs2)C(C)NC(=O)c2cccnc2)CC1` (stereo not given), with 2.51 µM [falling, partial curve, poor fit].
As to `CC1=NN(c2ccccc2)C(=O)/C1=C\C=C\c1ccccc1`, under setting [1], the AC50 is 1.78 µM [falling, full curve].
`N=c1n(Cc2ccc(Cl)cc2)c2ccccc2n1CC(O)c1ccco1` (stereo not given): the AC50 under setting [1] is 11.2 µM [falling, partial curve, poor fit].
Still for that read-out and setting: then `Cc1cccc(NC(=O)C2NC(=O)CC2c2ccccc2)c1C` (stereo not given), with 23.1 µM [falling, partial curve, poor fit]; and `CCOC(=O)c1cn[nH]c1NC(=S)Nc1ccccc1`, with 4.47 µM [falling, partial curve, poor fit].
In the case of `O=C(NCCCOc1cccc(CN2CCCCC2)c1)c1ccc(Cl)c(Cl)c1`, under setting [1], the AC50 was 32.6 µM [falling, single point].
On the same count and under the same terms, then `CC1CCCCN1C(=O)CSc1nnc(Cc2ccccc2)n1C` (stereo not given), with 10.3 µM [rising, partial curve, poor fit]; and `Cc1cccc(NC(=S)NCCc2ccccc2)n1`, with 1 µM [rising, partial curve, poor fit].
Still for that read-out and setting: then `CCOc1ccc2[nH]c(=O)c(CN(CC3COCCO3)C(=O)c3ccco3)cc2c1` (stereo not given), with 5.8 µM [falling, partial curve, poor fit]; and `Clc1ccccc1-c1nc2ccccc2c2nncn12`, with 13 µM [rising, single point].
The same measure, in the same setting: the figure for `Cc1ccc(S(=O)(=O)N(C)CCCC(=O)n2nc(C)cc2C)cc1` is 2.06 µM [falling, single point].
As to `O=C(Nc1cccc2ccccc12)C(=O)C1C(=O)Nc2ccccc21` (stereo not given), the AC50 under setting [1] was 8.91 µM [falling, partial curve, poor fit].
Still for that read-out and setting: then `c1ccc(C2=Nc3ccccc3OC2)cc1`, with 29.1 µM [falling, single point]; and `CCCCOC(=O)Nc1cc(OC)c(Cl)cc1OC`, with 12.6 µM [rising, single point].
Turning to `CCO[C@@H]1OC(C(=O)Nc2ccccc2)=C[C@H](c2coc3ccccc3c2=O)[C@H]1CCCO`, the AC50 under setting [1] is 25.1 µM [rising, single point].
Same read-out and setting: then `COc1ccccc1C(CCNCc1ccc(N(C)C)cc1)c1ccc(OC(C)C)cc1` (stereo not given), with 17.8 µM [falling, single point]; and `Cn1c(SCc2ccccc2Cl)nnc1-c1cnccn1`, with 29.1 µM [falling, single point].
On the same count and under the same terms, the figure for `COc1ccc(N(C)S(=O)(=O)c2cccc(C(=O)Nc3ccc(-n4cnnn4)cc3)c2)cc1` is 35.5 µM [falling, single point]; for `O=C1CC(Sc2nnc(-c3ccccc3O)o2)C(=O)N1c1ccccc1` (stereo not given) it is 12.6 µM [falling, single point].
With `COc1cccc(/C=N/NC(=O)C(C)Cn2cnc3ccccc32)c1` (stereo not given), under setting [1], the AC50 was 2.51 µM [falling, full curve, poor fit].
Consider `O=C(c1ccccc1Br)N1N=C(c2ccccc2)CC1c1ccccc1F` (stereo not given), for which, under setting [1], the AC50 was 4.47 µM [falling, partial curve, poor fit].
Turning to `CC(/C=C1\SC(=S)N(NC(=O)c2ccccc2C)C1=O)=C\c1ccccc1`, the AC50 under setting [1] is 2.91 µM [falling, partial curve, poor fit].
Still for that read-out and setting: the figure for `O=C(COC(=O)CNC(=O)c1ccccc1Cl)Nc1cc(C(F)(F)F)ccc1Cl` is 25.9 µM [rising, partial curve, poor fit].
Still for that read-out and setting: the figure for `O=C(Nc1nnc(CCN2CCCCC2)s1)c1ccccc1` is 3.55 µM [rising, full curve].
Take `COc1ccc(C2c3c(-c4ccccc4)n[nH]c3C(=O)N2c2ccc(C(=O)O)cc2)cc1` (stereo not given): the AC50 under setting [1] was 3.98 µM [falling, partial curve].
On to `CC(NC(=S)NCCc1ccccc1)C(c1cccs1)N1CCN(Cc2ccccc2)CC1` (stereo not given), for which the AC50 under setting [2] is 20.6 µM [rising, partial curve, poor fit].
For `Cc1ccc(CSc2nnc(SCC(=O)N/N=C/C=C/c3ccco3)s2)cc1`, under setting [1], the AC50 was 8.2 µM [falling, partial curve].
In the case of `CCOC(=O)/C=C/c1nc(C(=O)OCC)c(C)c(=O)[nH]1`, under setting [1], the AC50 is 25.1 µM [falling, single point].
The same measure, in the same setting: the figure for `N#CC(C#N)=C(Nc1ccc(F)cc1)SCc1cccc(Br)c1` is 6.51 µM [falling, full curve, poor fit].
For the molecule `O=C(CCC(=O)Nc1ccc(Br)cc1)N/N=C/c1ccc(F)cc1`, the AC50 under setting [1] is 6.31 µM [rising, partial curve, poor fit].
With `CC(C)C[C@H](NC(=O)[C@@H]1Cc2ccccc2CN1C(=O)OC(C)(C)C)C(=O)NCC1CCC(C(=O)O)CC1` (stereo not given in full), the AC50 under setting [1] is 17.8 µM [falling, single point].
The same measure, in the same setting: then `COc1ccc(C2C(C(=O)N3CCCC3)CC(=O)N2c2ccc(OC)cc2)cc1` (stereo not given), with 5.17 µM [rising, partial curve, poor fit]; and `CO/N=C/c1c(-c2ccccc2)nn(C)c1Cl`, with 2.82 µM [falling, partial curve, poor fit].
For the molecule `CC(C)NC(=O)NC(=O)COC(=O)CCCSc1nc2ccccc2s1`, the AC50 is 6.51 µM [falling, partial curve, poor fit] under setting [1] and 0.082 µM [rising, full curve, poor fit] under setting [2].
`COc1ccc(Cl)cc1NC(=S)N1CCN(c2ncccn2)CC1`: the AC50 under setting [1] was 22.4 µM [rising, partial curve, poor fit].
Still for that read-out and setting: then `COc1ccc(-n2cc(-c3ccccc3)[nH]c2=S)cc1`, with 4.11 µM [rising, single point].
Still for that read-out and setting: the figure for `O=C(CSc1ncccc1C(=O)Oc1ccccc1Cl)Nc1ccc(C(F)(F)F)cc1Cl` is 0.708 µM [rising, full curve]; for `CC(=O)c1c(C)[nH]c(C)c1C(C)=O` it is 35.5 µM [falling, single point].
The same measure, in the same setting: then `C=CCn1c(SCC(=O)NCC2CCCO2)nc2sc(C)c(C)c2c1=O` (stereo not given), with 5.62 µM [falling, single point].
`N#C/C(=C\c1ccccc1C(=O)O)c1nc2ccccc2[nH]1`: the AC50 under setting [1] is 12.6 µM [falling, single point].
Take `CCN1CCN(S(=O)(=O)c2ccc(Br)s2)CC1`: the AC50 under setting [1] was 3.66 µM [rising, partial curve, poor fit].
Regarding `Cc1cccc([C@@H]2[C@@H]3C(=O)N(Cc4ccccc4)C(=O)[C@@H]3[C@]3(Cc4ccc(Cl)cc4)C(=O)N(c4ccc(Br)cc4)C(=O)N23)c1`, the AC50 under setting [1] is 2.24 µM [falling, full curve, poor fit].
The same measure, in the same setting: the figure for `Cc1cccc(OCC(=O)NCc2cc(C)nc3ccccc23)c1` is 3.55 µM [falling, full curve, poor fit].
On the same count and under the same terms, the figure for `O=C(CN1CCSCC1)N/N=C/c1ccc(F)cc1F` is 14.6 µM [rising, partial curve, poor fit].
For the molecule `COc1ccc(C2NCCc3c2[nH]c2ccccc32)cc1CSc1nc2ccccc2s1` (stereo not given), the AC50 under setting [1] is 23.1 µM [falling, single point] and the AC50 under setting [2] is 20.6 µM [rising, single point].
As for `Cc1ccc(S(=O)(=O)N(CC(=O)N2CCc3ccccc3C2)c2cccc(Cl)c2)cc1`, the AC50 under setting [1] is 12.6 µM [falling, partial curve, poor fit].
Turning to `COc1ccc(-c2noc(CCc3ccccc3)n2)cc1`, under setting [1], the AC50 was 0.891 µM [rising, full curve].
On the same count and under the same terms, the figure for `COCCSc1nnc(NC(=O)c2ccc([N+](=O)[O-])cc2)s1` is 31.6 µM [rising, partial curve, poor fit].
On the same count and under the same terms, the figure for `Cc1cc(SC#N)cc(C)c1NC(=O)CCl` is 13 µM [falling, single point].
Consider `Cc1cc(NC(=O)CCC(=O)N(Cc2ccccc2)C(C(=O)NC2CCCC2)c2ccc(C)o2)no1` (stereo not given), for which, under setting [1], the AC50 is 5.01 µM [rising, partial curve, poor fit].

As a reminder, the AC50 is the concentration giving half of the maximal activity seen.

The values above are taken from PubChem BioAssay AID493014 (National Center for Advancing Translational Sciences (NCATS), 2011).
